# Screening data, single-dose tests

Source: ChEMBL document CHEMBL3988442, “University of Dundee, Small-Polar-MMV Screening Library” (2021).

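Whole-parasite assay of Trypanosoma brucei over 72 hours; the read-out is not stated. Tested at 30 µM. The record gives no direction; compounds that gave an IC50 in retests scored well above the rest, so higher reads as stronger inhibition. Values scatter widely below zero; nearly all retest evidence comes from the higher of the two concentrations used. Of about 64,000 compounds tested this way, about 940 (1.5%) reached 50% or more in at least one test.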

Values are the deposited “Percent Effect”, in %.
The record does not define 0% and 100%; most values in the screen are far below 50% and negative numbers occur (in some assays of this library far below -100).
The compounds are a random part of those screened.

SMILES	Percent Effect
O=C(O)CCn1nc(C(F)(F)F)c(Cl)c1C1CC1	-5.13
COCCN(C)C[C@@H]1CN(C(=O)NC2CCCCC2)C[C@@H]1CO	-41.72
Cc1nc(N2CC[C@@H](NC(=O)c3cnccn3)[C@H](O)C2)c2ccsc2n1	6.718
Cc1ncsc1C(=O)NCCNC(=O)Cc1cccc(F)c1	-9.39
Cc1nc(C)n(CC2CCCCN2CC(=O)Nc2ccncc2)n1 (stereo not given)	-25.27
Cc1ccccc1Oc1ncccc1CNS(C)(=O)=O	-26.08
CC(C)N(C)S(=O)(=O)c1ccc2c(c1)CCN(C(=O)c1cnccn1)C2	-31.7
CC(C)c1ncc2c(n1)CN(Cc1nc(-c3ccoc3)no1)CC2	15.52
[H][C@@]12CCCCCN(C(=O)CC)[C@@]1([H])[C@H](c1cccc(F)c1)CN2C	-22.94
NC(=O)C1CCN(C(=O)c2cccc(CN3CCOCC3)c2)CC1	-10.73
O=C(NCCn1ccnc1)NCC(c1ccco1)N1CCCCC1 (stereo not given)	-15.79
CCCn1cc(S(=O)(=O)N[C@H]2CN(CCO)C[C@@H]2C2CC2)cn1	-20.35
O=C(NC1(C(=O)NC2CCCC2)CCCC1)c1ccc2[nH]ncc2c1	-37.82
CC(C)c1nccn1CC1CCCN1Cc1nc2ccccc2n1C (stereo not given)	-36.11
Cc1cnn(C(C)C2CC2)c1NC(=O)c1ccc(Cn2cnnn2)cc1 (stereo not given)	1.536
Cc1ccc(-c2nc(CN3CCCC(Cn4cncn4)C3)no2)cc1 (stereo not given)	-10.05
COc1nc2c(cc1C(=O)N1C[C@@H](N)C[C@H]1C(=O)NC(C)C)CCC2	-23.92
CN1C[C@@H](C(=O)NC2CCCC2)[C@@]2(COc3ccc(F)cc3C2=O)C1	-2.74
NS(=O)(=O)CCNC(=O)c1ccc(OCc2ccccc2)nc1	-62.01
CNc1cc2c(nn1)CCN(C(=O)C1CCCc3ccccc31)C2 (stereo not given)	-48.16
COc1cc(C)c(C(C)NC(=O)c2cccnc2N(C)C)cc1OC (stereo not given)	-5.902
N#Cc1cn(C2CC2)c(=O)n(Cc2ncc(-c3cccs3)o2)c1=O	55.83
COCCN(C)C[C@@H]1CN(C(=O)c2ccoc2)C[C@@H]1CO	3.794
CC(C)(C)OC(=O)N1CC(=O)N(Cc2ccco2)CC(O)C1 (stereo not given)	-25.61
COc1ccc(OCCN(C)CCCn2cnc3c(N)ncnc32)cc1	-37.52
COc1nccnc1-c1cc(NC2CCCC2)nc2[nH]ccc12	-26.93
Cc1ccc(C2(CN(C)Cc3sccc3C)CCNCC2)nc1	19.25
Cc1cccc(O[C@H]2COCCN(C3CCC3)C2)n1	-12.36
CCN(CC)C(C)CNC(=O)c1cccnc1Oc1cccnc1 (stereo not given)	-49.22
CCC(CCNC(=O)c1cc(C2CC2)nc2c1cnn2C)n1cccn1 (stereo not given)	15.63
COCc1cn(C2CCN(C(=O)Cc3ccsc3)CC2)nn1	-3.218
CCOC(=O)C1CCCN(c2ccc(-c3nc(C)no3)cn2)C1 (stereo not given)	44.98
Cc1ccccc1C1CCCN(C(=O)c2c[nH]c(=O)c(Cl)c2)C1 (stereo not given)	-8.71
CC(C)NC(=O)N1CC(=O)c2sc(Nc3ccc(C#N)cc3)nc2C1	-20.31
Cc1ccc(C(=O)N2CCN(CCC(C)(C)C)CC2)c(=O)[nH]1	17.16
Cc1ccccc1-n1cnnc1SCC1CCCCO1 (stereo not given)	69.07
CCOc1ncccc1NC(=O)c1ccc(C)s1	-25.8
Cc1nc(-c2ccco2)ccc1C(=O)NCCN1CCN(C)CC1	-4.683
O=C(O)C(F)(F)F.[H][C@@]12CN(CCc3ccccc3)C[C@H](C(=O)N3CCCO3)[C@]1([H])CCO2	30.58
CCS(=O)(=O)CCNC(=O)c1ccc(-c2ccc(C)cc2)cc1F	17.94
Cc1nn(C)c2c(=O)n(CC(=O)NCc3ccc(N(C)C)cc3)ccc12	-3.023
[H][C@@]12CCN(C(=O)c3cscn3)[C@]1([H])CN(C(=O)C1CCOC1)C2 (stereo not given in full)	-39.89
Cn1cc(C(=O)N2CCCC(n3cncn3)C2)ccc1=O (stereo not given)	13.49
Cc1ccn(CCC(=O)N2CCCC2c2nnc(-c3scnc3C)o2)n1 (stereo not given)	-1.608
CCc1noc(C2CCCCN2C(=O)c2ccc(C)o2)n1 (stereo not given)	-18.12
O=C(O)C(F)(F)F.O=S(=O)(c1cccs1)N1Cc2nc(CN3CCCC3)oc2C1	-7.223
CCOCCN1CCC=C(C2c3nc[nH]c3CCN2C(C)=O)C1 (stereo not given)	27.79
Cc1cc(F)ccc1OC1(C(=O)O)CCN(Cc2cccnc2N)CC1	17.57
CCCS(=O)(=O)N1CCCC1c1cccc(N(C)C)c1 (stereo not given)	-27.97
O=C(CCC1CCCO1)NCCCC(=O)Nc1ccc(Cl)cc1 (stereo not given)	-25.29
Cn1nc(Br)nc1Sc1ccccc1NC(=O)C1CC1	3.439

For reference, 3 entries once more:

- CC(C)N(C)S(=O)(=O)c1ccc2c(c1)CCN(C(=O)c1cnccn1)C2 | -31.7%
- O=C(O)CCn1nc(C(F)(F)F)c(Cl)c1C1CC1 | -5.13%
- CCCn1cc(S(=O)(=O)N[C@H]2CN(CCO)C[C@@H]2C2CC2)cn1 | -20.35%